According to the supplement of paper PMC8728848:
This is one part of the list.

Tests used:
Assay in all cases: glycan array binding signal (z-score within array); higher = stronger binding
Details in all cases: glycan notation: IUPAC condensed, linker removed
[1] = target: Neu5Ac(a2-8)Neu5Ac
Method in brief: (§1)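 Negative Z-scores can be read as non-binding. The Z-score is calculated within each array and then averaged across arrays of one protein sequence at different concentrations or buffers and across linkers. Arrays, 3228 in all, were curated from the Consortium for Functional Glycomics database and kept only where the protein sequence was available.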

[2] = target: Neu5Ac(a2-8)Neu5Ac(a2-3)Gal(b1-3)GalNAc(b1-4)[Neu5Ac(a2-3)]Gal(b1-4)Glc
Method in brief: as §1

[3] = target: Neu5Ac(a2-8)Neu5Ac(a2-3)Gal(b1-3)GalNAc(b1-4)[Neu5Ac(a2-8)Neu5Ac(a2-3)]Gal(b1-4)Glc
Method in brief: as §1

[4] = target: Neu5Ac(a2-8)Neu5Ac(a2-3)Gal(b1-4)Glc
Method in brief: as §1

[5] = target: Neu5Ac(a2-8)Neu5Ac(a2-3)Gal(b1-4)GlcNAc
Method in brief: as §1

[6] = target: Neu5Ac(a2-8)Neu5Ac(a2-3)[Gal(b1-3)GalNAc(b1-4)]Gal(b1-4)Glc
Method in brief: as §1

[7] = target: Neu5Ac(a2-8)Neu5Ac(a2-3)[GalNAc(b1-4)]Gal(b1-4)Glc
Method in brief: as §1

[8] = target: Neu5Ac(a2-8)Neu5Ac(a2-8)Neu5Ac
Method in brief: as §1

[9] = target: Neu5Ac(a2-8)Neu5Ac(a2-8)Neu5Ac(a2-3)Gal(b1-4)Glc
Method in brief: as §1

[10] = target: Neu5Ac(a2-8)Neu5Ac(a2-8)Neu5Ac(a2-3)[Gal(b1-3)GalNAc(b1-4)]Gal(b1-4)Glc
Method in brief: as §1

[11] = target: Neu5Ac(a2-8)Neu5Ac(a2-8)Neu5Ac(a2-3)[GalNAc(b1-4)]Gal(b1-4)Glc
Method in brief: as §1

[12] = target: Neu5Ac(a2-8)Neu5Ac(a2-8)Neu5Ac(a2-8)Neu5Ac(a2-3)[GalNAc(b1-4)]Gal(b1-4)Glc
Method in brief: as §1

[13] = target: Neu5Ac(a2-8)Neu5Gc(a2-3)Gal(b1-4)GlcNAc
Method in brief: as §1

[14] = target: Neu5Ac(b2-6)Gal(b1-4)GlcNAc
Method in brief: as §1

[15] = target: Neu5Ac(b2-6)GalNAc
Method in brief: as §1

[16] = target: Neu5Ac9Ac(a2-3)Gal(b1-3)GlcNAc
Method in brief: as §1

[17] = target: Neu5Ac9Ac(a2-3)Gal(b1-4)GlcNAc
Method in brief: as §1

[18] = target: Neu5Ac9Ac(a2-6)Gal(b1-4)GlcNAc
Method in brief: as §1

[19] = target: Neu5Gc(a2-3)Gal(b1-3)GlcNAc
Method in brief: as §1

[20] = target: Neu5Gc(a2-3)Gal(b1-3)[Fuc(a1-4)]GlcNAc
Method in brief: as §1

[21] = target: Neu5Gc(a2-3)Gal(b1-4)Glc
Method in brief: as §1

[22] = target: Neu5Gc(a2-3)Gal(b1-4)GlcNAc
Method in brief: as §1

[23] = target: Neu5Gc(a2-3)Gal(b1-4)GlcNAc(b1-3)Gal(b1-4)GlcNAc(b1-2)Man(a1-3)[Neu5Gc(a2-3)Gal(b1-4)GlcNAc(b1-3)Gal(b1-4)GlcNAc(b1-2)Man(a1-6)]Man(b1-4)GlcNAc(b1-4)GlcNAc
Method in brief: as §1

[24] = target: Neu5Gc(a2-3)Gal(b1-4)[Fuc(a1-3)]GlcNAc
Method in brief: as §1

[25] = target: Neu5Gc(a2-6)Gal(b1-4)GlcNAc
Method in brief: as §1

[26] = target: Neu5Gc(a2-6)GalNAc
Method in brief: as §1

[27] = target: Neu5Gc(a2-8)Neu5Ac(a2-3)Gal(b1-4)GlcNAc
Method in brief: as §1

[28] = target: Neu5Gc(a2-8)Neu5Gc(a2-3)Gal(b1-4)GlcNAc
Method in brief: as §1

[29] = target: Neu5Gc(a2-8)Neu5Gc(a2-3)Gal(b1-4)GlcNAc(b1-3)Gal(b1-4)GlcNAc
Method in brief: as §1

[30] = target: Neu5Gc(a2-8)Neu5Gc(a2-6)Gal(b1-4)GlcNAc
Method in brief: as §1

[31] = target: Neu5Gc(b2-6)Gal(b1-4)GlcNAc
Method in brief: as §1

B1: truncCC1G-10077 (Coprinopsis cinerea) (protein)
chain: MHHHHHHHHPLPSPGPGWVLIQNGGTGKFLCSTPSGDIGTADGPETVYDYSVQWRFIQREYTGVYHVVNRATGAYLRQIGTSMPSIGLAEENDDELKDWWMLETYDNSEIGLASIISRWTGNVLDHYGGVSVQALDNNTENSYRSWAIIPARDWLTSFSLVNGQGGLCLAAQYAREETRLSTTANVNDFHAQWVFRKPSGSSGYTIQNKYNNHYVGGTSARWELVVCCNKYFGIRNTSTQKYLAIEDGQVTFQDQDMTDRKQCWELCSGRATDTSGNDYDLIYMDDDLLEVMIPWVGDKQGDLKHYIEKRATKKPPKDKGGWQLPAAGLIKKPKFNDIRQLLQELIEQWEWDVVNEEREQIQTLVSIDEAEARRLLGRRPHPDIVAAYQRSRSSTLFRIDRQGYFNIAGDRYVNIQGQYGDDSYFHIALPVGVRFGREQIRRFLRDSLDRSTSVTITPTTCKPPSGGPDYNRDPDSDGDNSWIKWTIAVVGTSAIKHSEL
glycan array binding signal (z-score) [1]: 0.18
glycan array binding signal (z-score) [2]: -0.511
glycan array binding signal (z-score) [3]: -0.706
glycan array binding signal (z-score) [4]: -1.11
glycan array binding signal (z-score) [5]: -0.969
glycan array binding signal (z-score) [6]: -0.04
glycan array binding signal (z-score) [7]: -0.475
glycan array binding signal (z-score) [8]: 0.124
glycan array binding signal (z-score) [9]: 0.249
glycan array binding signal (z-score) [10]: -0.92
glycan array binding signal (z-score) [11]: -0.016
glycan array binding signal (z-score) [12]: -0.02
glycan array binding signal (z-score) [13]: -1.09
glycan array binding signal (z-score) [14]: -1.25
glycan array binding signal (z-score) [15]: -1
glycan array binding signal (z-score) [16]: -1.02
glycan array binding signal (z-score) [17]: -0.932
glycan array binding signal (z-score) [18]: -0.867
glycan array binding signal (z-score) [19]: -0.698
glycan array binding signal (z-score) [20]: -0.171
glycan array binding signal (z-score) [21]: 0.376
glycan array binding signal (z-score) [22]: -0.789
glycan array binding signal (z-score) [23]: 1.32
glycan array binding signal (z-score) [24]: 3.02
glycan array binding signal (z-score) [25]: -0.533
glycan array binding signal (z-score) [26]: -0.873
glycan array binding signal (z-score) [27]: -0.55
glycan array binding signal (z-score) [28]: -0.276
glycan array binding signal (z-score) [29]: -0.377
glycan array binding signal (z-score) [30]: -0.247
glycan array binding signal (z-score) [31]: 1.45
